Source: article PMC9889334
These are yes or no findings as the source states them, for the method shown. Some binding calls cover weakened binding; strength is not graded here. Tags and fused reporters may be left off the sequences shown.

The chains behind the UniProt entries cited, without tags or fusion partners.
UniProt Q9UXT7: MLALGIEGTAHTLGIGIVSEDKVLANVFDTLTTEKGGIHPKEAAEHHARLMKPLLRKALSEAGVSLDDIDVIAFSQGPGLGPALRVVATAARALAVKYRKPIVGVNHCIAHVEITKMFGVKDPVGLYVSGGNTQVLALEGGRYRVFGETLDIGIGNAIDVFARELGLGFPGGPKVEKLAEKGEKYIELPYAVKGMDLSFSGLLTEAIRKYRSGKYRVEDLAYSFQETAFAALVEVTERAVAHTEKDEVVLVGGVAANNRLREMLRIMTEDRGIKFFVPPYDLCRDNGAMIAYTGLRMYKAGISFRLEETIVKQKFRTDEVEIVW

Target: T1, PaPcc1 with C-terminal hexa-histidine tag (Pyrococcus abyssi Pcc1) (Pyrococcus abyssi) (UniProt Q9V1Z9)
T1 sequence: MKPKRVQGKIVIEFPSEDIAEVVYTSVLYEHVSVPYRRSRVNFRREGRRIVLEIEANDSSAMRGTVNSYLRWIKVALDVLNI
Assay: co-purification (Ni-NTA affinity chromatography, then size exclusion chromatography); E. coli cells expressing untagged subunits and His6-tagged PaPcc1 or PaPcc2 mixed and lysed together; lysate heated at 65 °C; captured by the His6 tag on Ni-NTA at room temperature (20 mM Tris-HCl pH 8, 500 mM NaCl, 5 mM ß-mercaptoethanol, 10% glycerol), then SEC

Question: With “PaKae1 (Pyrococcus abyssi Kae1) (from UniProt Q9UXT7 1-324) (enzyme)” as the substance, how does the binding read?
Answer: binds
